For this assay, the target named is T1, Mrc1-Flag (subunit of the Mrc1-Tof1-Csm3 complex) (UniProt P25588).
T1 sequence: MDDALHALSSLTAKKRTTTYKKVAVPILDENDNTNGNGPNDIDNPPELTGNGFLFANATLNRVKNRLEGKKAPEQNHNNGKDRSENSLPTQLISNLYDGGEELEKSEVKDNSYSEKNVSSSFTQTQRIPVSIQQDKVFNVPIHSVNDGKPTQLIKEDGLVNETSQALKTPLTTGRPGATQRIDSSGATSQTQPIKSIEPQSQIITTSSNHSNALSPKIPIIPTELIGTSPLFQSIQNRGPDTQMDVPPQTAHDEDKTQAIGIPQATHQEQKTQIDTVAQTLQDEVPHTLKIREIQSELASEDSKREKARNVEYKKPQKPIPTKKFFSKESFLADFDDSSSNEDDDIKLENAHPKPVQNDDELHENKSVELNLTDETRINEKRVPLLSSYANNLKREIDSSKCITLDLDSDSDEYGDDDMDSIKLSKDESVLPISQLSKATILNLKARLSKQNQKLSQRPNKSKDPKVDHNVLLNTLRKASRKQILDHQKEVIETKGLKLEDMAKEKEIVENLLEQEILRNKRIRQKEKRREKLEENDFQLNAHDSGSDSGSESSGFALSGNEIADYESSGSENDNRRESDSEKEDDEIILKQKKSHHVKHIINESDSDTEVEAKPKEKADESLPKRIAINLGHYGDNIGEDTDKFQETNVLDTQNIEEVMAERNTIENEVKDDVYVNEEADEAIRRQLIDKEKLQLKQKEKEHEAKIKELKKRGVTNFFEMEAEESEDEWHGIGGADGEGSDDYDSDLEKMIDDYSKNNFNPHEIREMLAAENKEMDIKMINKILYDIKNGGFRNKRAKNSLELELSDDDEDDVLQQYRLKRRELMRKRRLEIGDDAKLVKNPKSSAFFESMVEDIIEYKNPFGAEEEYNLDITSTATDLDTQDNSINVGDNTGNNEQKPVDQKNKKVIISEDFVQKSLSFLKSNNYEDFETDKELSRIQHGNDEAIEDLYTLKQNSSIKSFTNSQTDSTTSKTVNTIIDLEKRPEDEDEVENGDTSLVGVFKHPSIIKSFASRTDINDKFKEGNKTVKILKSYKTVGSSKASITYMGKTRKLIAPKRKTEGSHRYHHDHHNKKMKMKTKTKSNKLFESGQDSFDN
Description: co-purification.

Data on two molecules can be found in article doi:10.1101/146837.

No constants are given. Whether binding was seen depends on the method and setting. Some results given as binding are weak or reduced against the parent protein; the word gives no strength. Tags and fused reporters may be left off the sequences shown.

B1: Tof1, untagged (subunit of the Mrc1-Tof1-Csm3 complex) (protein, UniProt P53840 1-1238)
chain: MSADLQQGTTNAADFSLTVLRARIALLATAIGGPDYTSQIDPPPYKLGDDCLACLKDLKRWFKLVDDQQKRWDVAMAVAEYRILTDDLLPILIDWENKCSLAAKLAKNNPDHEEFRNKAYYDKIALNCLQLLVLMTWPLIVTEQSSSNQITLYGELKKHQLVYKKTILSMESGKVLRAAIRLALDVIKIDRLSRTPRDNMVLKLVLNFFRNVIAIEPGEFTINTKKSMPKKGITSIDTLPPNVSMDDISLNTVISSFHKNKVFGFLLTLTSSLSKEFDQDFINIPLLEIMFYFTKDVNQELLFPRQFETGTHSKVVNKNESSSANNIVTSAGFELSKLLQKEHQMRKNVIKHTSARHSRFGGLLSIQTPDKTRLTVSGSQALVDEKIALQKLDDSKKWNKRIIKKHQSVAAEGLPNSLLNSQTGKAIFFTESNGKHFKEFINNFIDSGFNILLHSVTNYFTTEQDRMVTLEQVEYLLFFAWFVKYQLLRSKIDNSADIKQVSEALKEVTFILVSSLLRSAYDLKNWTVTHAGMIAFNELLNLVSRTKAAQEEDSTDIEFIVSRLFSDERIQLLSNLPKIGSKYSLQFMKSCIELTHSVLKVLEQYSDDKTLVIEGKSRRQKKFNISEGDITKLIEEENVDRDEALDILTSSLRSIEVNFQKVQANYMTEPVIETYINFLERFRELEDDSIKKVFSFFHRVFVQAKEQALLFRFDLIILLREMLSPDGLDRMSRSRKYVSQFSDYFLARLKKRLKKSPAWFVGLLFPPLHNSEVGFYQRYGEYNVLNNESMYAAPASQFKPIPDEEALPPSILLDMKYGVLVSTLLDDGKTELLDQLLKHITHTLDIFKSWLTVNVNAGKETVNPPNEYFTLTGVLNNDPIFKDKDYRALLLLIGYSIPRKINEPCFLPGTVEVSDLTVSCELVKKYLSTPFETPNGLPSSSYLLRVRSEKDSFSHNEQDGWEGDDDYDYNDPYIVPDDQILSKSDAAYFKDLDNNASDKLKGTKFSKGIARSKKKDKRKRRKGEAKTNLPMFGDQDDERPQTVRERHGVFSKEFISDSEDDEDLMNPIFFENETYMRWLLDKNNGQLTEDRYIQFAKFAAERMNNGGVVTGDYTSLFGGSIPSIESIRATESSSFAPDKSLISLASHVASEMSIFDVNNNNNNQLSDDDVNSESRNSLGSSQPSNSQNMFQSEVYSRKESTKRSLEASAADESDEDEEAIRLFGKKSRVVLSQGDSDD
As to B1, the binding entry is given as “binds”.

B2: His-Csm3 (subunit of the Mrc1-Tof1-Csm3 complex) (protein, UniProt Q04659 1-317)
chain: MDQDFDSLLLGFNDSDSVQKDPTVPNGLDGSVVDPTIADPTAITARKRRPQVKLTAEKLLSDKGLPYVLKNAHKRIRISSKKNSYDNLSNIIQFYQLWAHELFPKAKFKDFMKICQTVGKTDPVLREYRVSLFRDEMGMSFDVGTRETGQDLERQSPMVEEHVTSAEERPIVADSFAQDKRNVNNVDYDNDEDDDIYHLSYRNRRGRVLDERGNNETVLNNVVPPKEDLDALLKTFRVQGPVGLEENEKKLLLGWLDAHRKMEKGSMTEEDVQLIQSLEEWEMNDIEGQHTHYDLLPGGDEFGVDQDELDAMKEMGF
For B2, the binding entry is on record as “binds”.
